These are yes or no findings as the source states them, for the method shown. Binding seen in cells or lysates may run through a third protein. Some results given as binding are weak or reduced against the parent protein; the word gives no strength. Sequences can lack the tags named with a protein.
Target: Myc-tagged beta-catenin (UniProt P35222)
Test: co-IP; U2OS or Saos-2 cells transfected with Myc-beta-catenin, Flag-LHX9 or both, 48 h; lysis in 20 mM Tris pH 7.5, 150 mM NaCl, 1 mM EDTA, 1% Triton X-100; precipitated with anti-Myc tag antibody and Protein A/G agarose at 4 °C; blot probed with anti-Flag tag antibody

Chains of the proteins cited; added tags and fusions are not shown.
UniProt P35222: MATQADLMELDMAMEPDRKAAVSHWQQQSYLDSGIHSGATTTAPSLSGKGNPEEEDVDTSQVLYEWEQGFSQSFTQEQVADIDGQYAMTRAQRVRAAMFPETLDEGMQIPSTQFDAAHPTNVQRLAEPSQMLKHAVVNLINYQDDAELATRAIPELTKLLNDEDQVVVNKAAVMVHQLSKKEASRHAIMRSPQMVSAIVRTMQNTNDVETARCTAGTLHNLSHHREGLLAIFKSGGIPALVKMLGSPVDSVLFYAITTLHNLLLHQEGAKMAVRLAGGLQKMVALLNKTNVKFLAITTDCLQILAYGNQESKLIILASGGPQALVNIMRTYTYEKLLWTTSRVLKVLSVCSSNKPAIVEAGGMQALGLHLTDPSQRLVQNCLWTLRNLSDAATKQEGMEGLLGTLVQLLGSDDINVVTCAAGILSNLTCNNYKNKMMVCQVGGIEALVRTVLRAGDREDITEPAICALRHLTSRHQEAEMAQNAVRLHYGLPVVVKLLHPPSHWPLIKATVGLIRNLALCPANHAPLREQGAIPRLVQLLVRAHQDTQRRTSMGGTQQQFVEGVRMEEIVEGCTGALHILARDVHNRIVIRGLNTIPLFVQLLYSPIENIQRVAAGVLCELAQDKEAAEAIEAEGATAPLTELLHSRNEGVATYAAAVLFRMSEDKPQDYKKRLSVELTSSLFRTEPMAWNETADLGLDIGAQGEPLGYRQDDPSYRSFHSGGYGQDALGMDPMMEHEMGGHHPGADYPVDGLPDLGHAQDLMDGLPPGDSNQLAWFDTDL

binding: binds
B1: Flag-tagged LHX9 (protein, UniProt Q9NQ69 1-397)
chain: MEIVGCRAEDNSCPFRPPAMLFHGISGGHIQGIMEEMERRSKTEARLAKGAQLNGRDAGMPPLSPEKPALCAGCGGKISDRYYLLAVDKQWHLRCLKCCECKLALESELTCFAKDGSIYCKEDYYRRFSVQRCARCHLGISASEMVMRARDSVYHLSCFTCSTCNKTLTTGDHFGMKDSLVYCRAHFETLLQGEYPPQLSYTELAAKSGGLALPYFNGTGTVQKGRPRKRKSPALGVDIVNYNSGCNENEADHLDRDQQPYPPSQKTKRMRTSFKHHQLRTMKSYFAINHNPDAKDLKQLAQKTGLTKRVLQVWFQNARAKFRRNLLRQENGGVDKADGTSLPAPPSADSGALTPPGTATTLTDLTNPTITVVTSVTSNMDSHESGSPSQTTLTNLF

Reference: publication PMC6876112
